Laboratory results: PubChem BioAssay AID1259424 (University of Nebraska Medical Center, 2018)
Purpose: 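Find knockdowns that reproduce the expression shifts seen after KSR1 loss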 (primary screen). System: human HCT116 colon cancer cells. Reagents: siRNA pool against human genes, 50 nM. Measurement: 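Log2 levels of six mRNAs (branched-DNA multiplex), adjusted by two reference genes and the non-targeting median, then scored against the average KSR1 knockdown pattern as Pearson r and euclidean distance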. Reading the numbers: mean correlation with KSR1 profile and KSR1 correlation: higher = expression change more like KSR1 knockdown; mean distance from KSR1 profile: higher = expression change less like KSR1 knockdown.
Shown is an unselected part of about 14,000 deposited reagents. 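Higher correlation or smaller distance means closer resemblance to KSR1 loss; control wells, including KSR1 knockdowns, recur on many plates.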 No sequences are given here. Not given: the time to read-out.

The first 2 records, to show the layout:
no.	gene	mean correlation with KSR1 profile	mean distance from KSR1 profile	KSR1 correlation, replicate 1	KSR1 correlation, replicate 2	KSR1 correlation, replicate 3
1	MAMLD1 (GeneID 10046)	-0.355	1.79	-0.398	-0.535	0.162
2	IDO1 (GeneID 3620)	-0.367	1.82	-0.6	-0.0796	-0.489

Results, repeating the preview:
no.	gene	mean correlation with KSR1 profile	mean distance from KSR1 profile	KSR1 correlation, replicate 1	KSR1 correlation, replicate 2	KSR1 correlation, replicate 3
1	MAMLD1 (GeneID 10046)	-0.355	1.79	-0.398	-0.535	0.162
2	IDO1 (GeneID 3620)	-0.367	1.82	-0.6	-0.0796	-0.489
3	SLC25A14 (GeneID 9016)	-0.469	2.23	-0.287	-0.573	-0.176
4	ZNF512 (GeneID 84450)	-0.0186	1.83	0.0462	0.0146	-0.429
5	GDA (GeneID 9615)	-0.158	1.64	0.205	0.313	-0.901
6	ELOVL1 (GeneID 64834)	-0.302	1.53	-0.452	-0.387	-0.446
7	JMJD1C (GeneID 221037)	-0.0616	1.08	0.321	-0.475	-0.251
8	EGR2 (GeneID 1959)	-0.28	6.53	-0.0795	-0.281	-0.464
9	KDM7A (GeneID 80853)	0.548	1.82	0.251	0.532	0.632
10	DHCR24 (GeneID 1718)	0.629	2.65	0.283	0.336	0.807
11	NOL12 (GeneID 79159)	0.243	1.83	0.0306	0.0168	0.312
12	SLC6A2 (GeneID 6530)	0.307	2.21	0.253	0.355	0.472
13	RAB26 (GeneID 25837)	0.617	2.3	0.371	0.362	0.787
14	SWT1 (GeneID 54823)	0.606	1.19	0.404	0.664	0.642
15	RNF150 (GeneID 57484)	-0.54	2.69	-0.647	-0.45	-0.0143
16	TM4SF20 (GeneID 79853)	0.276	2.2	0.424	0.319	0.181
17	NQO2 (GeneID 4835)	0.476	1.86	0.38	0.387	0.442
18	TEDC2 (GeneID 80178)	-0.0781	2.42	-0.154	-0.331	-0.077
19	ZNF527 (GeneID 84503)	0.0272	2.39	0.0819	0.275	-0.499
20	MICA (GeneID 100507436)	0.733	1.26	0.807	0.671	0.608
